Data reported in PMC10485903.
These are yes or no findings as the source states them, for the method shown.

Target: T1, human lysozyme (human), P61626
T1 chain: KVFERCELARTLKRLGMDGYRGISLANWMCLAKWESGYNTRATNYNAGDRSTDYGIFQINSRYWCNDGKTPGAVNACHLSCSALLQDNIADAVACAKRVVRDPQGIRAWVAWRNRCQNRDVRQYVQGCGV
Assay: cross-linking; PICUP: 20 μM protein in 10 mM MES/NaOH, 0.02% NaN3, pH 5.5, with Ru(bpy) and APS, 450 nm LED, lighting times 1-4096 ms; protein freshly isolated by SEC and kept 0.5-1 h on ice; read by SDS-PAGE (InstantBlue or silver stain); also with 0-20 μM ThT; both purified
Details: remark: other sources report otherwise

- binding: no binding (tested: 20 μM)
B1: human lysozyme, P61626 19-148 (enzyme)
chain: KVFERCELARTLKRLGMDGYRGISLANWMCLAKWESGYNTRATNYNAGDRSTDYGIFQINSRYWCNDGKTPGAVNACHLSCSALLQDNIADAVACAKRVVRDPQGIRAWVAWRNRCQNRDVRQYVQGCGV
